The text below walks through data of PMC5859036.

Chains of the proteins cited; added tags and fusions are not shown.
UniProt P07355: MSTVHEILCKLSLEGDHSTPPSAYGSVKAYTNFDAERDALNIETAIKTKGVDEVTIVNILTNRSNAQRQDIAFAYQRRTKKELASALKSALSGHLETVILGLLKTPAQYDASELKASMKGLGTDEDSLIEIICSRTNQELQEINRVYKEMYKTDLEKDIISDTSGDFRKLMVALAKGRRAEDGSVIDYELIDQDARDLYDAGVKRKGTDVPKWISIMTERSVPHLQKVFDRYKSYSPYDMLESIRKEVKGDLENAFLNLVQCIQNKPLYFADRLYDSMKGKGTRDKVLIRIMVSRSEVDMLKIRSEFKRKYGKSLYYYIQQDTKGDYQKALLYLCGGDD
UniProt P35222: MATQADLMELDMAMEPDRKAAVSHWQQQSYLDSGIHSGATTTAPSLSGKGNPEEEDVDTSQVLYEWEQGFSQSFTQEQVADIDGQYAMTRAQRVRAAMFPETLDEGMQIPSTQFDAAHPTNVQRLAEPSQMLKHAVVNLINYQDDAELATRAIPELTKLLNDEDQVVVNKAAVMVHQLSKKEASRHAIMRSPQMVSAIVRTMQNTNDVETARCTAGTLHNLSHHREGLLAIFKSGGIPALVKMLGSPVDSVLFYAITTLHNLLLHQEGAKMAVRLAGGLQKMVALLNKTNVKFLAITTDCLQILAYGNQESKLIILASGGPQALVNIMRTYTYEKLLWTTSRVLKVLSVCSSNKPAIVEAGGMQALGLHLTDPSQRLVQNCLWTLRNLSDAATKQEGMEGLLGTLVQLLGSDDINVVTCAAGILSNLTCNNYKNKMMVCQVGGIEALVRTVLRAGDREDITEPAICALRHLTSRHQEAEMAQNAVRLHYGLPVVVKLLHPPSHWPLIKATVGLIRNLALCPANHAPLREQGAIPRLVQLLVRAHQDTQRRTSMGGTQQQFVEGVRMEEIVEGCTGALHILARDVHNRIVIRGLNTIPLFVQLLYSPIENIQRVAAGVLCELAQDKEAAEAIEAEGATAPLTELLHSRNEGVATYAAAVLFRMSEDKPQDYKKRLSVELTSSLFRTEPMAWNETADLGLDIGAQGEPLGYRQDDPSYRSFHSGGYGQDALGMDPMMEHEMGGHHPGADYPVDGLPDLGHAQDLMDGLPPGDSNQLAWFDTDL

For assay [1], the target named is annexin A2 (human (endogenous in A549)) (UniProt P07355). The assay is described as follows: co-IP; immunoprecipitation and western blotting from A549SLP2 cells; which protein was precipitated is not told in the text shown (Supplemental Fig. 4A).
Assay [2] has as its target T1, stomatin-like protein-2 (SLP-2) (human) (UniProt Q9UJZ1).
T1 sequence: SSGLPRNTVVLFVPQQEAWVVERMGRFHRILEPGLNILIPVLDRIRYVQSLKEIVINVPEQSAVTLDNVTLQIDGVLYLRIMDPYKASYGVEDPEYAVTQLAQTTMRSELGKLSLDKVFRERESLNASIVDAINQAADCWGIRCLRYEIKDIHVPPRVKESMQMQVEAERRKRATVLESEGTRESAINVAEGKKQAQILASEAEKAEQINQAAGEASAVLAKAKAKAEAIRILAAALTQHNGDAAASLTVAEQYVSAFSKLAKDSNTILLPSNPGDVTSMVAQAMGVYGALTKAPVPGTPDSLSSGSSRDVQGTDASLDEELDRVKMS
The assay is described as above.

These are yes or no findings as the source states them, for the method shown. In cells and extracts the contact can be indirect. Some binding calls cover weakened binding; strength is not graded here.

Regarding β-catenin (from UniProt P35222 1-781), the binding entry in assay [1] was “binds”.

As to annexin A2 (from UniProt P07355 1-339), the binding entry in assay [2] was “binds”.
